Results are given in words; binding and its absence hold for the method and conditions named. Binding can be weak; no strength is given.
Biological target: Btn2 (S. cerevisiae) (UniProt P53286)
Experiment: pull-down; 1 μM of each protein in buffer A, 25 °C, 15 min; Btn2 isolated on Btn2-binder beads (Btn2 antibodies on NHS-sepharose), seven washes; SDS-PAGE with SYPRO-Ruby; both purified

Sequences of proteins named here, by UniProt entry; tags and fusion partners are left off. A change or cut given only in a name is not applied to a line headed by its entry.
UniProt P53286: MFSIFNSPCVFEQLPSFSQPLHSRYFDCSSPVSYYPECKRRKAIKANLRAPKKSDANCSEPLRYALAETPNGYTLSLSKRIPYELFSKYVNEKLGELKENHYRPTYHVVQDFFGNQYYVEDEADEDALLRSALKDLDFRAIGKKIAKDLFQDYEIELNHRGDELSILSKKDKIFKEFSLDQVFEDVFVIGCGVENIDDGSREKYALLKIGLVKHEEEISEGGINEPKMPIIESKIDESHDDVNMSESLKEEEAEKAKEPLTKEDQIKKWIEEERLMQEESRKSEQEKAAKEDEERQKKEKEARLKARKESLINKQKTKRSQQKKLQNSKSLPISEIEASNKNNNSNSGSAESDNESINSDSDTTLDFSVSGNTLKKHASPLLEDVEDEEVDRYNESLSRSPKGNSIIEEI
UniProt P25491: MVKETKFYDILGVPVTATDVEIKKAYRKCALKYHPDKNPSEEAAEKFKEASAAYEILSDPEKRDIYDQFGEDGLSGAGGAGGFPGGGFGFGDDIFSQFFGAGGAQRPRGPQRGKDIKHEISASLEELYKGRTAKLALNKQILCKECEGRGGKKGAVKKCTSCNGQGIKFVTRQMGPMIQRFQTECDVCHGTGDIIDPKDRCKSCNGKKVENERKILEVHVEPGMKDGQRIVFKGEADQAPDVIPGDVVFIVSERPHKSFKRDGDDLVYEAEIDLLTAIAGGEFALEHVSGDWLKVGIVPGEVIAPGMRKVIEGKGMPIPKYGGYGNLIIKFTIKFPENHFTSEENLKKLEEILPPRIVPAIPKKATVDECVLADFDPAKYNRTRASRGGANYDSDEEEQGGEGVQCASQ

| binding | Molecule |
| --- | --- |
| no binding (tested: 1 μM) | Ydj1 (from UniProt P25491 1-409) |
| binds | Sis1 (protein, UniProt P25294 1-352) MVKETKLYDLLGVSPSANEQELKKGYRKAALKYHPDKPTGDTEKFKEISEAFEILNDPQKREIYDQYGLEAARSGGPSFGPGGPGGAGGAGGFPGGAGGFSGGHAFSNEDAFNIFSQFFGGSSPFGGADDSGFSFSSYPSGGGAGMGGMPGGMGGMHGGMGGMPGGFRSASSSPTYPEEETVQVNLPVSLEDLFVGKKKSFKIGRKGPHGASEKTQIDIQLKPGWKAGTKITYKNQGDYNPQTGRRKTLQFVIQEKSHPNFKRDGDDLIYTLPLSFKESLLGFSKTIQTIDGRTLPLSRVQPVQPSQTSTYPGQGMPTPKNPSQRGNLIVKYKVDYPISLNDAQKRAIDENF |

— paper PMC6813348
